Reference: PubChem BioAssay AID1487 (National Center for Advancing Translational Sciences (NCATS), 2009)
The other results are listed elsewhere or left out. Further columns of the screen follow, without active or inactive calls. The list favours compounds with an active or inconclusive main result. Potencies come from curve fits of mixed quality, noted in brackets.

Test: qHTS Assay for Modulators of Lamin A Splicing
Details: HeLa LMNA splicing GFP/RFP minigene ratio, 48 h
Summary of the method: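 S3 HeLa stable clones carrying a lamin A-EGFP splicing minigene plus DsRed2 were seeded at 600 cells/well in Opti-MEM with 2% FBS, pin-dosed and incubated 48 h at 37°C. Acumen cytometry (488 nm) gave the GFP/RFP total-intensity ratio.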

[1] = measured here: RFP viability control channel
[2] = measured here: GFP splicing reporter channel

SMILES	AC50 [1]	AC50 [2]
O=C(Cn1c2c(sc1=O)C1c3ccccc3OCC1CS2)Nc1ccc(Cl)cc1 (stereo not given)	35.5 µM [rising, single point]	
CCC(Sc1nc2n[nH]c(C)c2c(=N)n1-c1ccc(Br)cc1)C(=O)N(CC)CC (stereo not given)	35.5 µM [falling, single point]	
COc1cc2nc(C3CCC3)nc(N3CCN(c4ccccc4OC)CC3)c2cc1OC		35.5 µM [rising, single point]
O=C(c1cccc(C(=O)N2CCN(Cc3ccccc3)CC2)c1)N1CCN(Cc2ccccc2)CC1	10 µM [rising, partial curve]	
C=CCN1C(=CCO)[C@H]2C[C@H]3[C@@H]1CC[C@@]31c3ccccc3N3C=C4[C@@H]5N(/C=C/2[C@H]31)c1ccccc1[C@]51CC[C@H]2[C@H]1C[C@@H]4/C(=C/CO)N2CC=C	0.00891 µM [falling, partial curve]	0.00891 µM [falling, full curve, poor fit]
Clc1ccc(-c2noc(CSc3nnc(-c4ccncc4)n3-c3ccccc3)n2)cc1	12.6 µM [rising, partial curve]	
O=S1(=O)CCC(NC(=S)SCCOc2ccccc2)C1 (stereo not given)		35.5 µM [falling, single point]
CCCC(=O)N1CCN(c2ccc(NC(=O)c3cc4ccccc4o3)cc2)CC1	22.4 µM [rising, single point]	
O=[N+]([O-])c1cccc(-c2n[nH]c(=S)n2Cc2ccccc2)c1	22.4 µM [rising, single point]	4.47 µM [rising, partial curve]
NC1(C(=O)O)CCCCC1		0.001 µM [rising, full curve, poor fit]
OCCCCNCc1ccc(OCc2ccc(Cl)cc2Cl)cc1	35.5 µM [rising, single point]	
COc1ccccc1CNc1ncncc1-c1ccc(N(C)C)cc1		15.8 µM [falling, partial curve, poor fit]
O=c1oc2ccccc2c(O)c1Cc1cc(Cl)c2cccnc2c1O	35.5 µM [rising, single point]	
COc1cccc(NC(=O)OCCN2CCN(Cc3ccccc3)CCC2=O)c1	20 µM [rising, single point]	35.5 µM [rising, single point]
CC1=C(C(=O)NCc2ccco2)C2(CCC(C)CC2)OC1=O (stereo not given)	0.2 µM [rising, full curve, poor fit]	
COc1ccccc1CN(Cc1cc2cc3c(cc2[nH]c1=O)OCCO3)Cc1nnnn1Cc1ccco1		35.5 µM [falling, single point]
O=C(NC(c1ccccc1)c1ccccc1)C1CCCC1	0.00708 µM [rising, full curve, poor fit]	
Cc1nc(-c2ccc(Cl)cc2)sc1CCNC(=O)C(=O)Nc1ccccc1C#N	14.1 µM [falling, partial curve]	12.6 µM [falling, partial curve]

SMILES	AC50 [1]	AC50 [2]
Cc1cc(N2C(=O)C3C4c5ccccc5C(c5ccccc54)C3C2=O)no1 (stereo not given)	12.6 µM [rising, single point]	
c1ccc(-c2nnc(SCc3cn4ccsc4n3)o2)cc1	31.6 µM [rising, single point]	
CCCCN(C(=O)Nc1ccc(OCC)cc1)C1CCN(C(C)=O)CC1		3.98 µM [falling, partial curve, poor fit]
CN(C)N1C(N)=C(C#N)C(c2cccc3ccccc23)C2=C1CC(c1ccccc1)CC2=O (stereo not given)	28.2 µM [falling, single point]	3.55 µM [falling, partial curve, poor fit]
COc1ccc(Cn2c(CCC(=O)N3CCN(c4ccccn4)CC3)nc3ncccc3c2=O)cc1	35.5 µM [rising, single point]	
CCCc1ccc(OC(=O)c2sc3ncn(Cc4cccc(F)c4)c(=O)c3c2C)cc1		35.5 µM [falling, single point]
COc1ccc(NS(=O)(=O)c2cc(NC(=O)c3ccc(C)o3)ccc2N2CCCCC2)cc1	11.2 µM [rising, partial curve]	
CN(Cc1ccccc1)C(=O)CSc1nc2ccccc2c(=O)n1Cc1ccco1	12.6 µM [rising, partial curve]	2.82 µM [rising, partial curve]
COc1ccc(C(=O)CSc2nc3[nH]ncc3c(=O)[nH]2)cc1	0.0398 µM [falling, full curve, poor fit]	0.0282 µM [falling, full curve, poor fit]
CC1=Nn2c(nc3sc4c(c3c2=O)CCCC4)SC1	35.5 µM [rising, single point]	
CCCCN(CCCC)C(=O)c1cc2ccccc2c(=O)o1	35.5 µM [rising, single point]	
O=C(Nc1ncc(Cc2cccc(Cl)c2)s1)c1ccc([N+](=O)[O-])cc1	7.08 µM [rising, partial curve]	6.31 µM [rising, partial curve]
O=C(N/N=C/c1ccco1)c1cc(-c2cccc(Br)c2)nc2ccccc12	25.1 µM [rising, single point]	
CN(C)c1ccc(NC(=S)c2ccccn2)cc1	15.8 µM [rising, single point]	
CC1=CC(=O)C=C(C)C1=NOc1ccc([N+](=O)[O-])cc1		0.0316 µM [rising, full curve, poor fit]
Cc1cccc(CNC(=O)C2CCN(S(=O)(=O)c3cccc4nonc34)CC2)c1	3.55 µM [falling, single point]	
CC1=CC(C)(C)Nc2ccc(OS(=O)(=O)c3ccc(C)cc3)cc21		15.8 µM [rising, single point]
O=c1cc(O)c2c(=O)n(-c3ccccc3)c3c(c2o1)CCCCC3	3.16 µM [rising, partial curve, poor fit]	0.794 µM [rising, full curve, poor fit]

As entered above.
Under AC50 [1], Cc1cccc(CNC(=O)C2CCN(S(=O)(=O)c3cccc4nonc34)CC2)c1 is entered as 3.55 µM [falling, single point]
Under AC50 [2], CC1=CC(=O)C=C(C)C1=NOc1ccc([N+](=O)[O-])cc1 is entered as 0.0316 µM [rising, full curve, poor fit]
